In PMC9226075:
Results are given in words; binding and its absence hold for the method and conditions named. Binding seen in cells or lysates may run through a third protein. Some entries that bind do so weakly or less than the wild type. For part of these data: Tags and fused reporters may be left off the sequences shown. Values belong to the molecule of their own block, whether it stands above or below them.

Protein sequences, listed by entry. Tags and fused reporters are not part of them.
UniProt Q91Z31: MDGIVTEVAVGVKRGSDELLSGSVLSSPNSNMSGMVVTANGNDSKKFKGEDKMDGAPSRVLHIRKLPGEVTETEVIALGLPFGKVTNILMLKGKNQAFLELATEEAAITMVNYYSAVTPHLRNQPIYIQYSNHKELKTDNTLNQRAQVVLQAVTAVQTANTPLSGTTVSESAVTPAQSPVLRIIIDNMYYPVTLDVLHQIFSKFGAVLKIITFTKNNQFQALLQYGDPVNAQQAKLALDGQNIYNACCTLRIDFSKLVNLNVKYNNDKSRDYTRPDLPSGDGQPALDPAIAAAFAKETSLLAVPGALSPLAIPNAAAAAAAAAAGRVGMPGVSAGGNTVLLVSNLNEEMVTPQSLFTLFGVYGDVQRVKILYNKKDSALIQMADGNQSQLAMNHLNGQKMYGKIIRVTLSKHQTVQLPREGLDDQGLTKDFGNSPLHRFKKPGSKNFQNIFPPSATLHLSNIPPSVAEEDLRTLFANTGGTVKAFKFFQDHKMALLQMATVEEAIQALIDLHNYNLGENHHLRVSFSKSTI

What was measured:
FLAG-hnRNPH1 (mouse) = target: T1, FLAG-hnRNPH1 (mouse) (UniProt O35737); test: co-IP; HEK293T cells co-transfected with FLAG-hnRNPH1 and MYC-PTBP2 or MYC-SRSF3, 36 h; immunoprecipitated with anti-FLAG antibody, immunoblotted with FLAG and MYC antibodies
T1 sequence: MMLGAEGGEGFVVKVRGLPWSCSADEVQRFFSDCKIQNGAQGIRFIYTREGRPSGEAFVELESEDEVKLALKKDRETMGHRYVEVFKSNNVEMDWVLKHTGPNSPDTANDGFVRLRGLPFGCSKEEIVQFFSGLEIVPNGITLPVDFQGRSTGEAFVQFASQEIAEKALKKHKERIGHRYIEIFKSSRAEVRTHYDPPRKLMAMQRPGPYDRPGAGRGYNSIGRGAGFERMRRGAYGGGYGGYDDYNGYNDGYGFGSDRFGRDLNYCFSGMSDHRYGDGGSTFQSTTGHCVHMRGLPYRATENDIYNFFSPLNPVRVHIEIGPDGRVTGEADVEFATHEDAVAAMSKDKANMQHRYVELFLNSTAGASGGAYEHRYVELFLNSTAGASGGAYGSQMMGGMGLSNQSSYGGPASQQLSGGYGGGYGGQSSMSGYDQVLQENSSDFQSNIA

[1] = target: T2, hnRNPH1 (mouse (endogenous in testis and ovary)) (UniProt O35737); test: co-IP; endogenous proteins of mouse testis lysate, hnRNPH1 antibody, protein A/G magnetic beads, overnight at 4 °C; extracts treated with or without RNase A (1 µg/ml); IgG as negative control; western blot
T2 sequence: T1 sequence

[2] = target: T2, hnRNPH1 (mouse (endogenous in testis and ovary)); test: co-IP; endogenous proteins of E17.5 mouse ovaries, immunoprecipitation for hnRNPH1; western blot

Molecule: MYC-PTBP2 (from UniProt Q91Z31 1-531)
binding (FLAG-hnRNPH1 (mouse)): binds

B2: MYC-SRSF3 (protein, UniProt P84104 1-164)
chain: MHRDSCPLDCKVYVGNLGNNGNKTELERAFGYYGPLRSVWVARNPPGFAFVEFEDPRDAADAVRELDGRTLCGCRVRVELSNGEKRSRNRGPPPSWGRRPRDDYRRRSPPPRRRSPRRRSFSRSRSRSLSRDRRRERSLSRERNHKPSRSFSRSRSRSRSNERK
binding (FLAG-hnRNPH1 (mouse)): binds

Other lines, results leading:

binding [1]: binds
binding [2]: binds
Molecule: PTBP2 (from UniProt Q91Z31 1-531)

binding [1]: binds
binding [2]: binds
B1: SRSF3 (protein, UniProt P84104 1-164)
chain: B2 chain
